# Source: US10301596B2, “Method of repairing damaged chondrocytes via low-dose irradiation” (KOREA INSTITUTE OF RADIOLOGICAL & MEDICAL SCIENCES, priority 2013, dated 2019)
# At least one structure is not confirmed: it was looked up by name or label, or the drawing left a doubt.
# Tested on: chondrocytes
# Assay: Levels of differentiation- and inflammation-related proteins (type II collagen, Sox-9, I-κB, COX-2), Western blot in chondrocytes
# Type: cell-based
# Method: First, the chondrocytes derived from joints were cultured in a DMEM medium according to a known method (E. H. Hong, et al., J. Biol. Chem. 285:1283-1295, 2010). Then, the cultured chondrocytes were inoculated into culture dishes at a density of 5×10^4 cells/cm^2, which were irradiated with 0 cGy, 0.5 cGy, 1.0 cGy, 1.5 cGy, and 2.0 cGy LDR using a ^137Cs-ray source (KIRMS, Korea), and the levels of type II collagen or Sox-9 protein, which are cartilage-specific differentiation marker proteins, and I-κB or COX-2 protein, which are inflammation-related proteins, were determined via Western blot analysis, and the transcriptional activity of Sox-9 protein and NF-κB, which is affected by I-κB, were determined by reporter gene assay (FIGS. 1a and b). […]
# Finally, chondrocytes were transfected with 3 μg of GFP-labeled S83A α-catenin, FLAG-labeled S33A β-catenin, or wild type γ-catenin, reacted with or without treatment with 5 μM or 10 μM BAY 11-7082 for 24 hours, and the levels of I-κB and COX-2 proteins were determined via Western blot analysis (FIG. 5g). […]
smiles,measurement,setting,value
O=c1cc(N2CCOCC2)oc2c(-c3ccccc3)cccc12 [LY294002],"levels of type II collagen, Sox-9, I-κB and COX-2 proteins","10 μM or 20 μM, 1 hour before 10 ng/mL IL-1β, 48 hours","recovery of type II collagen and Sox-9 expression, reduction of COX-2 expression, and the inhibition of I-κB degradation"
"CC1=C(/C=C/C(C)=C/C=C/C(C)=C/C(=O)O)C(C)(C)CCC1 [RA, retinoic acid]","pathological changes induced by soluble factor (type II collagen, Sox-9, COX-2 proteins)","10 ng/mL EGF, 10 nM PMA or 1 μM RA",inhibition of expression of type II collagen and Sox-9 proteins and induction of COX-2 protein expression
